Results as given in the supplement of paper PMC12823440, “Inhibitors supercharge kinase turnover through native proteolytic circuits” (Nature, 2025).
The other results are listed elsewhere or left out. The calls rarely recur for the same compound in another form.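 Kinases, fused to nanoluciferase, were expressed in K562 cells; luminescence was measured every 4 h from 2 to 18 h as percent of control (DMSO = 100%, positive control = 0%). A time point is decreased if signal falls significantly (2 sigma). Hits were called by the authors by a rule that is not shown; the count of time points alone does not decide it.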

By UniProt entry, the sequences of proteins in these tests, tags left out. Where a name states a change or a piece, a line headed by the entry shows the natural chain unless it says otherwise.
UniProt P48729: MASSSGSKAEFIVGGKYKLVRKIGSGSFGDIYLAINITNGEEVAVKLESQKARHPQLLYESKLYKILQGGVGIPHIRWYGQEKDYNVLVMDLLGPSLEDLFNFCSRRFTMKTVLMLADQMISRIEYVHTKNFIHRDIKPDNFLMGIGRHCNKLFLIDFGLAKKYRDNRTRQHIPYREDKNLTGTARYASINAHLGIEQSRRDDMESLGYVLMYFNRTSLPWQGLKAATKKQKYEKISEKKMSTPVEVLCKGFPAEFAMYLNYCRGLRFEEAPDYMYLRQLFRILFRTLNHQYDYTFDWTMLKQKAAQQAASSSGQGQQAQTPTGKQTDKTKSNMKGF
UniProt Q9Y463, whole entry, looked up: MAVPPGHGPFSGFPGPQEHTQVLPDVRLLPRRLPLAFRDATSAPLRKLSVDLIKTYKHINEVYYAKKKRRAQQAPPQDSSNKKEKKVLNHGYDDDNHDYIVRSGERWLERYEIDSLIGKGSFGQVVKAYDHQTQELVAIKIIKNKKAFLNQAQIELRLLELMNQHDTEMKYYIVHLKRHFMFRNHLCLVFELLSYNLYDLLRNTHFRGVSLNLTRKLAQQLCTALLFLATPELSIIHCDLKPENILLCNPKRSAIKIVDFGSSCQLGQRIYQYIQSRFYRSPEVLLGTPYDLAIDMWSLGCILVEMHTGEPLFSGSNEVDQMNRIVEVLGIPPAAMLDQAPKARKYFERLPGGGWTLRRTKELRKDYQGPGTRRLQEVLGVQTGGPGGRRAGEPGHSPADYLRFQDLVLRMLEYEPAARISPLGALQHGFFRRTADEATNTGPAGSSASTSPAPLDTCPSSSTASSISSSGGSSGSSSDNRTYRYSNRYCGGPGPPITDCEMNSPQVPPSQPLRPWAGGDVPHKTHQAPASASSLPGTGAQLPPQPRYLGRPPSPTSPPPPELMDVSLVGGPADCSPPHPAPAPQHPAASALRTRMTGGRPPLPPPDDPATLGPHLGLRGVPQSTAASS
UniProt P29317, whole entry: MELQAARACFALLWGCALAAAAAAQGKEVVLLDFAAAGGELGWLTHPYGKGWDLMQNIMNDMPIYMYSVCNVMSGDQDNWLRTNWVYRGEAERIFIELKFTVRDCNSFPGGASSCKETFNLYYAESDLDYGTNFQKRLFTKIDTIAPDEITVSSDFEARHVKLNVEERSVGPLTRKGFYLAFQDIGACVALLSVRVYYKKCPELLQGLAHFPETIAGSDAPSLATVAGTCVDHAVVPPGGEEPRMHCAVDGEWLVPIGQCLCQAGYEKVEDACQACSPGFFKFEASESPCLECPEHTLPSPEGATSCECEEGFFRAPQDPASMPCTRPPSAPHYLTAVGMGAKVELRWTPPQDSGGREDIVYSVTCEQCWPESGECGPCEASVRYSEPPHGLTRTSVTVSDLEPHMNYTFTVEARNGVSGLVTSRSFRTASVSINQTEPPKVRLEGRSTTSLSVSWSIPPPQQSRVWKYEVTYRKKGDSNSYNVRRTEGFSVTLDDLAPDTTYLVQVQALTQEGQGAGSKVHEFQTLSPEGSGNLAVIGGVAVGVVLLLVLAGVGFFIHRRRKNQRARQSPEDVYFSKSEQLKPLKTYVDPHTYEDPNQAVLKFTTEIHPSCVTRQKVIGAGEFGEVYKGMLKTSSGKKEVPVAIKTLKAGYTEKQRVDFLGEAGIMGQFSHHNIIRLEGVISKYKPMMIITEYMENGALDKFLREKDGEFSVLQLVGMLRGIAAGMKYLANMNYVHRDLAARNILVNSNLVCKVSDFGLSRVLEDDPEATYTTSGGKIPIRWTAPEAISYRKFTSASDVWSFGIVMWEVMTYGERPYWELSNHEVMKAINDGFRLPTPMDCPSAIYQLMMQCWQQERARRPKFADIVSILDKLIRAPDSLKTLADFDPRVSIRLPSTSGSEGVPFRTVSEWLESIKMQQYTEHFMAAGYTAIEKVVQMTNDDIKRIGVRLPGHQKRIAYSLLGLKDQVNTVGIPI
UniProt P21860, whole entry: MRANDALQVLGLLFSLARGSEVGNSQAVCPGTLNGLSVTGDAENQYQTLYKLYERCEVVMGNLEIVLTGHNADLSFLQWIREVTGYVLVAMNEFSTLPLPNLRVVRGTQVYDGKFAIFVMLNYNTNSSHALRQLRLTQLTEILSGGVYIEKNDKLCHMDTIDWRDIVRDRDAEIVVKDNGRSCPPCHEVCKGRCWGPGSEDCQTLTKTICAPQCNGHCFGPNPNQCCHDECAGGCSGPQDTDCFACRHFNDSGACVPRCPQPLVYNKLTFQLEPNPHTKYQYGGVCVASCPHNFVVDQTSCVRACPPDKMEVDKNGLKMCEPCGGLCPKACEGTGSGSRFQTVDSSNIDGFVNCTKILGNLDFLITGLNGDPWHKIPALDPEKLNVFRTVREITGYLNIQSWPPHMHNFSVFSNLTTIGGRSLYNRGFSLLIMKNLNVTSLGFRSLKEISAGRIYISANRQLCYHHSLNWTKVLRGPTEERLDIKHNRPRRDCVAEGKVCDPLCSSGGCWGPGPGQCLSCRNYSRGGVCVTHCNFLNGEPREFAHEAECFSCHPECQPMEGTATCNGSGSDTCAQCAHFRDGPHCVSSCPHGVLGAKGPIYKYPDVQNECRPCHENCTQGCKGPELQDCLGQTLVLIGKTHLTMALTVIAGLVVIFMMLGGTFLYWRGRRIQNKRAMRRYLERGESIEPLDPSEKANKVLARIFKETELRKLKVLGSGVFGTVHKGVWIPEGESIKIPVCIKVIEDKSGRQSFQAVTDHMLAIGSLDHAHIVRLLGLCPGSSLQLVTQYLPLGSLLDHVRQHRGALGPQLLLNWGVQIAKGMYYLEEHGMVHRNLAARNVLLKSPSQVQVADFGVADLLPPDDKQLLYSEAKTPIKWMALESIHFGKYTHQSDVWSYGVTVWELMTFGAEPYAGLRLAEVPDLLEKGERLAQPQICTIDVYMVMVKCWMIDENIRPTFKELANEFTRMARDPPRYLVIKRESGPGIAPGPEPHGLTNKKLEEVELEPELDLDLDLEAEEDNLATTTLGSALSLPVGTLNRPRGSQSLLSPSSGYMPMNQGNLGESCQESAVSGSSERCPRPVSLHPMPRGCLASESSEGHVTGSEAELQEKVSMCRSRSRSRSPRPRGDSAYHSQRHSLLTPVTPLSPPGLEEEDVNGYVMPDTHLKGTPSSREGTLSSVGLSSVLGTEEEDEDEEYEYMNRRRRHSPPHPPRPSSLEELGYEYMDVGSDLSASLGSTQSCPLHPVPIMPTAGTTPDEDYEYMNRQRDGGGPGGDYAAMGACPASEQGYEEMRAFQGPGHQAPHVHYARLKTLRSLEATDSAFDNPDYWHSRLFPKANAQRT
UniProt Q15303, whole entry R711C: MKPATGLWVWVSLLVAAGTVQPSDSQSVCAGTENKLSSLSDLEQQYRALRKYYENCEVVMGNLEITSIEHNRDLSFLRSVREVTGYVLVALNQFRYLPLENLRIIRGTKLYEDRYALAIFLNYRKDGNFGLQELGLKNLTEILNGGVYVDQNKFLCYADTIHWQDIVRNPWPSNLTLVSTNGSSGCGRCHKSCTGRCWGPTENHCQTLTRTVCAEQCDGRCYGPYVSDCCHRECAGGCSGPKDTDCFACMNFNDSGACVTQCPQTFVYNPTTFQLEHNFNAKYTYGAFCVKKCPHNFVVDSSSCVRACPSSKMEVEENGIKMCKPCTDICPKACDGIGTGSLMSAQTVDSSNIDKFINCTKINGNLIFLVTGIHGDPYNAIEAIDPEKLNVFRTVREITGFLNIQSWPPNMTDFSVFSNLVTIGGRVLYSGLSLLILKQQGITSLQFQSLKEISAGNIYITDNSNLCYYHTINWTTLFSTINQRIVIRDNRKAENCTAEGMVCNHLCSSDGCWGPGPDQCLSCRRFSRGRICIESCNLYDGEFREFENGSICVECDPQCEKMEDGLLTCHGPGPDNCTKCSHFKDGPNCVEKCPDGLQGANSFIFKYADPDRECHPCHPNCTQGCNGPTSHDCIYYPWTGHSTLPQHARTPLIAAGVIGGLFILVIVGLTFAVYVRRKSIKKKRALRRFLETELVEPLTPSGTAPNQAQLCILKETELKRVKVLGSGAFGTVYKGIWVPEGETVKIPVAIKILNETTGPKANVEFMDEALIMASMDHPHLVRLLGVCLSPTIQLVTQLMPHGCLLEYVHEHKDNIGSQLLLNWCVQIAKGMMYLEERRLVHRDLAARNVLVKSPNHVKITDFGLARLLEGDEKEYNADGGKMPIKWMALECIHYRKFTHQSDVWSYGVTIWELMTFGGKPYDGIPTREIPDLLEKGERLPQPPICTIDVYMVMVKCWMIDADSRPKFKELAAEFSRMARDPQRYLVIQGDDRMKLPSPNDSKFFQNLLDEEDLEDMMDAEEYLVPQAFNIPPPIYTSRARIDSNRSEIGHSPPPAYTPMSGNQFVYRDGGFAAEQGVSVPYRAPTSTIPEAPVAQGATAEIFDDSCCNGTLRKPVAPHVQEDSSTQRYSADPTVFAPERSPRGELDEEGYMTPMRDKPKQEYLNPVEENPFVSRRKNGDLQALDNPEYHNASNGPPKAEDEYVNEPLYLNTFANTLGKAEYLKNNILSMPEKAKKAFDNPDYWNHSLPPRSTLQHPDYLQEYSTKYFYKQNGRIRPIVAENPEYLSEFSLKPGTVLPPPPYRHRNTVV
UniProt P21802, whole entry, looked up: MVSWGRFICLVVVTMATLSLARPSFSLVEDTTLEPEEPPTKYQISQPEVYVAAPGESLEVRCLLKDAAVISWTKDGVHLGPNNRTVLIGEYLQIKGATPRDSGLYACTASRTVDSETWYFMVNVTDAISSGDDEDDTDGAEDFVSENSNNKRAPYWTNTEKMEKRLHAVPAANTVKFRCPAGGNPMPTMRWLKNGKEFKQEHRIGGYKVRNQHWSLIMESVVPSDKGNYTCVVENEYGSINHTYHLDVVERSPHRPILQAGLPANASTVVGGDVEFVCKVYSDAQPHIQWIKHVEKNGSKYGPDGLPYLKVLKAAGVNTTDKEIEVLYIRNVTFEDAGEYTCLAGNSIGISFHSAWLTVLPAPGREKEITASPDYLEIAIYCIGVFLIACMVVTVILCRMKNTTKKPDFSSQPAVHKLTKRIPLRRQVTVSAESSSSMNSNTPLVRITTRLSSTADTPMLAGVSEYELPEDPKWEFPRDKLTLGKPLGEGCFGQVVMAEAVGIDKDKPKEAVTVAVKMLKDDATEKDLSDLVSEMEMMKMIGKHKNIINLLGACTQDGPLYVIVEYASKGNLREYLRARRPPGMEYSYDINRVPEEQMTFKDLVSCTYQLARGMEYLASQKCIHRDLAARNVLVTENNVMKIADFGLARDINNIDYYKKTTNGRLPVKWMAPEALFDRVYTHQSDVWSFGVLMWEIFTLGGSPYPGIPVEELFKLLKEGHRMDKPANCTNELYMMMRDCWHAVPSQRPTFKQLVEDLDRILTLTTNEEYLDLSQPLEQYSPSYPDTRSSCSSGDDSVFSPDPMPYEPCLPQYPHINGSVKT
UniProt P22607, whole entry, looked up: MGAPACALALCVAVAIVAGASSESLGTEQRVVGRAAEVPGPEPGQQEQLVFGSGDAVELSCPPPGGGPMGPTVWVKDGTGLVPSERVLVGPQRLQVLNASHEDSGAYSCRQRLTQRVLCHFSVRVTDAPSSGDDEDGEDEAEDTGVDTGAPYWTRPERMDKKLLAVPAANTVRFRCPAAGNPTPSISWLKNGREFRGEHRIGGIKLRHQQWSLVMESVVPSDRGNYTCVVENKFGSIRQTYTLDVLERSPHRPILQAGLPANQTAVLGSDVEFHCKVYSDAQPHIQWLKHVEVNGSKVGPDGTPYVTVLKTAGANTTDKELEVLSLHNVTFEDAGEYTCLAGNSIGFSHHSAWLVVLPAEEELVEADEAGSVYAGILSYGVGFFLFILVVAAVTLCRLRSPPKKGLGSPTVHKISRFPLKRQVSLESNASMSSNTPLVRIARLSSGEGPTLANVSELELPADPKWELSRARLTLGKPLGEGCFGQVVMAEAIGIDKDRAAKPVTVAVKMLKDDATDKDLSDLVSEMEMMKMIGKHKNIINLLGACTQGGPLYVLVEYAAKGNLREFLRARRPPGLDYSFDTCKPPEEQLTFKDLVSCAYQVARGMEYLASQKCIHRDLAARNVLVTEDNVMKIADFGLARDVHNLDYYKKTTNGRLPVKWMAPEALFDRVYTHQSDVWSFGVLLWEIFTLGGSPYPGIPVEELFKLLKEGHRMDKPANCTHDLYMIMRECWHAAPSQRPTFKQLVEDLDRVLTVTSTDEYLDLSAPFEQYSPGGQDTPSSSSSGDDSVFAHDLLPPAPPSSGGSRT

What was measured:
Assay in all cases: number of time points (of 5) at which kinase-Nluc abundance scored as decreased, DMSO-normalised (count); higher = more persistent destabilization
Conditions in all cases: K562; 2-18 h
[1] = target: CSNK1A1 (UniProt P48729)
[2] = target: CSNK1D (UniProt P48730)
[3] = target: DDR1 (UniProt Q08345)
[4] = target: DYRK1B (UniProt Q9Y463)
[5] = target: DYRK2 (UniProt Q92630)
[6] = target: EGFR (UniProt P00533)
[7] = target: EGFR_G719S (UniProt P00533)
[8] = target: EGFR_G719S_T790M (UniProt P00533)
[9] = target: EGFR_L718V (UniProt P00533)
[10] = target: EGFR_L858R (UniProt P00533)
[11] = target: EGFR_L861Q (UniProt P00533)
[12] = target: EGFR_T790M (UniProt P00533)
[13] = target: EPHA2 (UniProt P29317)
[14] = target: ERBB3 (UniProt P21860)
[15] = target: ERBB4_R711C (clone: ERBB4_mut) (UniProt Q15303)
[16] = target: ERN1 (UniProt O75460)
[17] = target: FGFR1 (UniProt P11362)
[18] = target: FGFR2 (UniProt P21802)
[19] = target: FGFR3 (UniProt P22607)
[20] = target: FGR (UniProt P09769)

| SMILES | number of time points [1] | number of time points [2] | number of time points [3] | number of time points [4] | number of time points [5] | number of time points [6] | number of time points [7] | number of time points [8] | number of time points [9] | number of time points [10] | number of time points [11] | number of time points [12] | number of time points [13] | number of time points [14] | number of time points [15] | number of time points [16] | number of time points [17] | number of time points [18] | number of time points [19] | number of time points [20] |
| --- | --- | --- | --- | --- | --- | --- | --- | --- | --- | --- | --- | --- | --- | --- | --- | --- | --- | --- | --- | --- |
| CCC[C@H](C)Oc1nc(N)c2[nH]c(=O)n(CCCCCN3CCCCC3)c2n1 (10 µM) | 0 | 0 | 0 | 0 | 0 | 0 | 0 | 0 | 0 | 0 | 0 | 0 | 0 | 0 | 0 | 0 | 0 | 0 | 0 | 0 |
| NC(=O)c1cnc(N[C@@H]2CCCC[C@@H]2N)nc1Nc1cccc(-n2nccn2)c1 (2.5 µM) | 0 | 0 | 4 | 0 | 0 | 0 | 0 | 0 | 0 | 0 | 0 | 0 | 0 | 0 | 0 | 0 | 0 | 0 | 0 | 0 |
| CCOC(=O)c1c(Nc2ccccc2Cl)oc(/C=C2\C=Nc3ncccc32)c1O (10 µM) | 0 | 0 | 0 | 0 | 0 | 0 | 0 | 0 | 0 | 0 | 0 | 0 | 0 | 0 | 0 | 0 | 0 | 0 | 0 | 0 |
| CN(C)C(=O)c1cc2cnc(Nc3ccc(N4CCN(CCCCNC(=O)COc5cccc6c5C(=O)N(C5CCC(=O)NC5=O)C6=O)CC4)cn3)nc2n1C1CCCC1 (stereo not given) (10 µM) | 0 | 0 | 0 | 0 | 0 | 0 | 0 | 0 | 0 | 0 | 0 | 0 | 0 | 0 | 0 | 0 | 0 | 0 | 0 | 0 |
| O=c1cc(-c2ccc(O[C@@H]3O[C@H](CO)[C@@H](O)[C@H](O)[C@H]3O)cc2)oc2cc(O)c([C@@H]3O[C@H](CO)[C@@H](O)[C@H](O)[C@H]3O[C@@H]3OC[C@H](O)[C@H](O)[C@H]3O)c(O)c12 [Vaccarin] (10 µM) | 0 | 0 | 0 | 0 | 0 | 0 | 0 | 0 | 0 | 0 | 0 | 0 | 0 | 0 | 0 | 0 | 0 | 0 | 0 | 0 |
| Cc1nn(CC(F)(F)F)cc1Nc1ncc(Br)c(NCc2ccc(S(N)(=O)=O)cc2)n1 (10 µM) | 0 | 0 | 0 | 0 | 0 | 0 | 0 | 0 | 0 | 0 | 0 | 0 | 0 | 0 | 0 | 0 | 0 | 0 | 0 | 0 |
| COCCOc1cnc2ccn([C@H](C)c3nnc4c(F)cc(-c5cnn(C)c5)cn34)c(=O)c2c1 (10 µM) | 0 | 0 | 0 | 0 | 0 | 0 | 0 | 0 | 0 | 0 | 0 | 0 | 0 | 0 | 0 | 0 | 0 | 0 | 0 | 0 |
| CNCc1cc(Oc2ccc3c(ccn3C(=O)Nc3cc(C(F)(F)F)n(C)n3)c2)ncn1 [Acrizanib] (10 µM) | 0 | 0 | 0 | 0 | 0 | 0 | 0 | 0 | 0 | 0 | 0 | 0 | 0 | 0 | 0 | 0 | 0 | 0 | 0 | 0 |
| O=C1NC(=O)C(Cc2c[nH]c3c(Cl)cccc23)N1 (stereo not given) [Necroptosis-IN-1] (10 µM) | 0 | 0 | 0 | 0 | 0 | 0 | 0 | 0 | 0 | 0 | 0 | 0 | 0 | 0 | 0 | 0 | 0 | 0 | 0 | 0 |
| C=CC(=O)N1CCC(c2ccc(C(N)=O)c(-c3ccc(Oc4ccccc4)cc3)n2)CC1 [Orelabrutinib] (2.5 µM) | 0 | 0 | 0 | 0 | 0 | 0 | 0 | 0 | 0 | 0 | 0 | 0 | 0 | 0 | 0 | 0 | 0 | 0 | 0 | 0 |
| CN1CCC(Nc2nc(Nc3ccc(Oc4ccccc4)cc3)c3c(=O)[nH]cc(Br)c3n2)CC1 (2.5 µM) | 2 | 0 | 5 | 0 | 0 | 0 | 3 | 0 | 0 | 0 | 0 | 0 | 0 | 0 | 0 | 0 | 0 | 3 | 3 | 0 |
